From patent US20100151003A1
Results are given in words; binding and its absence hold for the method and conditions named. Some entries that bind do so weakly or less than the wild type.

Chains of the proteins cited; added tags and fusions are not shown. Lines headed by an entry give the natural chain unless they say otherwise; changes in a name come on top.
UniProt P01133: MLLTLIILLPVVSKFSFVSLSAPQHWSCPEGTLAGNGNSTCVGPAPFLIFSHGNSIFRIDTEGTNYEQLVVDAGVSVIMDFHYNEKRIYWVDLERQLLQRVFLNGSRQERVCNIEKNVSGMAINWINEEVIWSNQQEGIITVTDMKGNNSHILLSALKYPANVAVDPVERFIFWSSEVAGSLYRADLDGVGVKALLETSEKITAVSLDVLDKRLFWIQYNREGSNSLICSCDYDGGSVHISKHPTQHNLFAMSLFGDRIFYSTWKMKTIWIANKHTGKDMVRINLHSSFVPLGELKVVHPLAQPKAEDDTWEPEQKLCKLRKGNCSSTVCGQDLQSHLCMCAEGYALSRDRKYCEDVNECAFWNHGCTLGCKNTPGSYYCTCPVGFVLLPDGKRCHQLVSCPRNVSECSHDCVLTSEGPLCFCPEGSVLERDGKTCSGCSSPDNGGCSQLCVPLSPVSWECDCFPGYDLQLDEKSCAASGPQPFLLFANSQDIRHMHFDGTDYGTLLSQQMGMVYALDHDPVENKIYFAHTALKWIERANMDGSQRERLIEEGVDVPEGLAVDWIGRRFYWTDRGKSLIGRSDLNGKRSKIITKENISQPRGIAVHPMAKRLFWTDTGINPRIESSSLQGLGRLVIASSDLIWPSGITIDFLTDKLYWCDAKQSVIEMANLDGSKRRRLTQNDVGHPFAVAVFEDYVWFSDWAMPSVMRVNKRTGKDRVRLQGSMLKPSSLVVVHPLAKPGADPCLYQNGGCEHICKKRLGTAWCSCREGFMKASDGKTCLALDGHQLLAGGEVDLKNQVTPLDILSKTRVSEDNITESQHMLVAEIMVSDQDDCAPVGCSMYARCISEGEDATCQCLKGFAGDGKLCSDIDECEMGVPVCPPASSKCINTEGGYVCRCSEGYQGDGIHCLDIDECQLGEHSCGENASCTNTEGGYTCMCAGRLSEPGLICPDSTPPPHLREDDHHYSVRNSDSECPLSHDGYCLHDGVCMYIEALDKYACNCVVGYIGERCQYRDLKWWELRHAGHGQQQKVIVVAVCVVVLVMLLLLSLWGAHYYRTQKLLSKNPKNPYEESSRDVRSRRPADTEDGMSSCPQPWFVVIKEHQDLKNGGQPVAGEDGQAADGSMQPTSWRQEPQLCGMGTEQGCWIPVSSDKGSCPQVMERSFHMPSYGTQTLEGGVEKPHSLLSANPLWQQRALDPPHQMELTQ

Columns and labels:
[1] = biological target: sEGFR-MMB (dimeric soluble EGFR ectodomain mimetibody) (human); experiment: phage ELISA (FIG. 7)
[2] = biological target: sEGFR-MMB (dimeric soluble EGFR ectodomain mimetibody) (human); experiment: phage ELISA, sEGFR-MMB passively coated
[3] = biological target: sEGFR-MMB (dimeric soluble EGFR ectodomain mimetibody) (human); experiment: phage ELISA on passively coated sEGFR-MMB [A]
[4] = biological target: biotinylated sEGFR-MMB (human); experiment: phage ELISA, biotinylated sEGFR-MMB captured on streptavidin
[5] = biological target: biotinylated sEGFR-His6 (human) (UniProt P00533); experiment: phage ELISA, biotinylated sEGFR-His6 captured on streptavidin
[6] = biological target: biotinylated sEGFR-His6 (human) (UniProt P00533); experiment: phage ELISA, b-EGFR-His captured on streptavidin [C]
[7] = biological target: biotinylated sEGFR-MMB (human); experiment: phage ELISA, b-EGFR-MMB captured on streptavidin [C]
[8] = biological target: biotinylated sEGFR-His6 (human) (UniProt P00533); experiment: phage ELISA (FIG. 7); sEGFR-His6 biotinylated and captured on streptavidin by Table 8
[9] = biological target: sEGFR-MMB (dimeric soluble EGFR ectodomain mimetibody) (human); experiment: phage ELISA, coated sEGFR-MMB
[10] = biological target: EGF + sEGFR-MMB complex (human) (UniProt P01133); experiment: phage ELISA, coated sEGFR-MMB with EGF added in excess

Measured: binding

B1: phage P174 (pIX S16) (peptide, not shown: large carriers)
chain: GGGSGCLDALWQCVYGGGSGGSGG
not listed: [9] | [10]
binds: all other assays above

B2: phage P175 (pIX S15) (peptide, not shown: large carriers)
chain: GGGLPDDSLPELICKVRGGGGSGGSGG
binds: [1] | [2] | [3] | [4] | [7]

B3: phage P173 (pIX S18) (peptide, not shown: large carriers)
chain: GGGTDCVIFGLETYCLRGGGSGGSGG
binds: [9] | [2] | [10] | [4]

B4: phage P191 (pIII CNL1-11) (peptide, not shown: large carriers)
chain: AGHFYPTKTPGYGG
binds: [10]

B5: phage P192 (pIII CNL1-11) (peptide, not shown: large carriers)
chain: AGAASRALWAFNSDGG
binds: [10]

B6: phage P193 (pIII CNL1-11) (peptide, not shown: large carriers)
chain: AGSYYWGYTVDIRRGG
binds: [10]
